In US7129053 (DAKOCYTOMATION DENMARK A S, dated 2006):
No constants are given. Whether binding was seen depends on the method and setting. Some binding calls cover weakened binding; strength is not graded here.

Amino acid sequences for entries named in this document (tags omitted).
UniProt P77872: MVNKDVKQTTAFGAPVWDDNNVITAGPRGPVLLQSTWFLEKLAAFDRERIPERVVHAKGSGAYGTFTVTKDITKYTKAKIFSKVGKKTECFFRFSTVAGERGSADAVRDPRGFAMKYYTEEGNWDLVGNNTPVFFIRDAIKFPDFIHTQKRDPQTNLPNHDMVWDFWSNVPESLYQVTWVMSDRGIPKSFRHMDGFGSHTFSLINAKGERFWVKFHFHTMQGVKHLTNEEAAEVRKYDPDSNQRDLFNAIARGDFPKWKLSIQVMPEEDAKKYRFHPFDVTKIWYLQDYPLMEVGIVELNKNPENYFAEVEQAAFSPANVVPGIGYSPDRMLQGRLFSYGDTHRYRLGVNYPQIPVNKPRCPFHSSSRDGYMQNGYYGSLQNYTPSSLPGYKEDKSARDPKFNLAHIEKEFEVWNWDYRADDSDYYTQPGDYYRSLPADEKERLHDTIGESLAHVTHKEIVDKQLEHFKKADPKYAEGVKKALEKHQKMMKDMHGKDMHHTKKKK

Tests used:
[1] = biological target: H. pylori catalase (Helicobacter pylori) (UniProt P77872); assay: Western blot on reduced purified antigen; member identified by Table 2
[2] = biological target: H. pylori catalase (Helicobacter pylori) (UniProt P77872); assay: Western blot on reduced purified antigen, culture supernatant

Row | Binder | binding [1] | binding [2]
1 | monoclonal antibody HP25.2m/2H10 (antibody, IgG2a, V domains shown, also called HP25.2m/2H10 (K10); HP25.2m/2Hallin (K10)) VH: VQLLEQPGAELAKPGASVKMSCKASGYTFTNYWIHWVKQRPGQGLKWIGYINPATGSTSYNQDFQDRATLTADKSSTTAYMQLTSLTSEDSSVYYCAREGYDGFDSWGQGTTLTVSS VL: ELVLTQSPAIMSASPGEKVTMTCSASSSVNYMYWYQQKSGTSPKRWIYDTSKLASGVPARFSGSGSGTSYSLTLSSMEAEDAATYYCQQWSSNPYTFGGGTKLEIK | binds | binds
2 | monoclonal antibody HP25.6m/1B5 (antibody, IgG1, V domains shown, also called HP25.6m1/1B5) VH: EVQLQQSGAELVKPGASVKLSCTSSGFNIKDTYVHWMKQRPEQGLEWIGKIDPANGKTKYDPIFQAKATMTADASSNTAYLQLSSLTSEDTAVYYCALPIYYASSWFAYWGQGTLVTVSA VL: DIVMTQSHKFMSTSVGDRVSITCKASQDVGTSVAWYQQKPGHSPKLLIYWTSTRHTGVPDRFTGSGSGTDFILTISNVQSEDLADYFCQQYSSSPTFGGGAKVEIK | binds | binds
